Laboratory results from publication PMC4231765.
Substitutions are numbered along the chain they refer to. Names may count otherwise. No constants are given. Whether binding was seen depends on the method and setting. For part of these data: Binding seen in cells or lysates may run through a third protein. Some entries that bind do so weakly or less than the wild type. For part of these data: Tags and fused reporters may be left off the sequences shown. One block for each molecule: values may come before it.

Protein sequences, listed by entry. Tags and fused reporters are not part of them.
UniProt Q9SP32: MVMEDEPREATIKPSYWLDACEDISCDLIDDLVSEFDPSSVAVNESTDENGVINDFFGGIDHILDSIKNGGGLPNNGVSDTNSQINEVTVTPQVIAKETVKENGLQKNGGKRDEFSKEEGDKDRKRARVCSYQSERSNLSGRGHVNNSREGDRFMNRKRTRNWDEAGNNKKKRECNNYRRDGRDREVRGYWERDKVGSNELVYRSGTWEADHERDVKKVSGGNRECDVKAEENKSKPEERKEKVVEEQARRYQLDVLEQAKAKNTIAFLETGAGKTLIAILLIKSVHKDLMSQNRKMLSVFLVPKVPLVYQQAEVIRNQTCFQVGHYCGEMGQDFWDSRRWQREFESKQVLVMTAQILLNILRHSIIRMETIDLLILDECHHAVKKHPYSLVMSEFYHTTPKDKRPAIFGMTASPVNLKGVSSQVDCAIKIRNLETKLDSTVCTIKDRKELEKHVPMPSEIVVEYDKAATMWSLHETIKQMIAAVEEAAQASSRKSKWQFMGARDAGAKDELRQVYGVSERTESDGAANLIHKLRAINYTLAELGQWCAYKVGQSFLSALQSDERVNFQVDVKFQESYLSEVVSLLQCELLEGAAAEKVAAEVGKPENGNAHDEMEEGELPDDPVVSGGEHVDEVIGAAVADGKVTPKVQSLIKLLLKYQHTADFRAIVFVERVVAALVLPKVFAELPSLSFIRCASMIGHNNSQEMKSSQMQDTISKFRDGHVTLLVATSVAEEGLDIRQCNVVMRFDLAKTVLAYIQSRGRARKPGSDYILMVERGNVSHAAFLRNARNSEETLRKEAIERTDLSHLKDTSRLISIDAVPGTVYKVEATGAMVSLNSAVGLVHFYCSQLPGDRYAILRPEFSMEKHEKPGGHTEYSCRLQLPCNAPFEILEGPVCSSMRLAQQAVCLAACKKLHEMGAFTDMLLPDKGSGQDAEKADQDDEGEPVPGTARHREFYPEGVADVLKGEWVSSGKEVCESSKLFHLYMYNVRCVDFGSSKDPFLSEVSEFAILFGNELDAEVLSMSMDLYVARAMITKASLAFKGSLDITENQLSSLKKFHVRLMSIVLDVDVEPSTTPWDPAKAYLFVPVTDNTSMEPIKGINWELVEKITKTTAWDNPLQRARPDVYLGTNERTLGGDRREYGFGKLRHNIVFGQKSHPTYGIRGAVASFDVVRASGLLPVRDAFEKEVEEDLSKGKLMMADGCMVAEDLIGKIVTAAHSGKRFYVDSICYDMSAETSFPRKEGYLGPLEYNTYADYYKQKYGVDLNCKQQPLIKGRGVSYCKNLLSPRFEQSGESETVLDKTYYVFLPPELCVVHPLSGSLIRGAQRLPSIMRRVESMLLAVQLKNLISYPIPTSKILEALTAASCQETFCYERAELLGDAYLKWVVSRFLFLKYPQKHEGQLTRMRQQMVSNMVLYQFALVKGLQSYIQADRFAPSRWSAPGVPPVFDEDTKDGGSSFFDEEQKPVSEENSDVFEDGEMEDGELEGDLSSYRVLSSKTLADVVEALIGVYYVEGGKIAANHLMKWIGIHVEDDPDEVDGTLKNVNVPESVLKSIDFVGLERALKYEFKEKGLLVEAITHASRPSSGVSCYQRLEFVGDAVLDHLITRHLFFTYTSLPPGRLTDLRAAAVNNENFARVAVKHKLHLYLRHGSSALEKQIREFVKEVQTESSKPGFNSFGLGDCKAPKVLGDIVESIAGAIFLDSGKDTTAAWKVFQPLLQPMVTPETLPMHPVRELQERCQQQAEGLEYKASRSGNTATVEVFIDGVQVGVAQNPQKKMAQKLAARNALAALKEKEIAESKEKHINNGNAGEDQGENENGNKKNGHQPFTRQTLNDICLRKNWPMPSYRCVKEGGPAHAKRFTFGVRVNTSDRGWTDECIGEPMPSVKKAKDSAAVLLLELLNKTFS

Tests used:
[1] = target: T1, HYL1, full-length, recombinant (MBP-HYL1 and GST-HYL1) (Arabidopsis thaliana) (UniProt O04492); experiment: pull-down; recombinant HYL1 or mutant from E. coli with DCL1 or SE tagged with 3×Flag purified from HEK293; western analysis; bait not stated; both purified
T1 sequence: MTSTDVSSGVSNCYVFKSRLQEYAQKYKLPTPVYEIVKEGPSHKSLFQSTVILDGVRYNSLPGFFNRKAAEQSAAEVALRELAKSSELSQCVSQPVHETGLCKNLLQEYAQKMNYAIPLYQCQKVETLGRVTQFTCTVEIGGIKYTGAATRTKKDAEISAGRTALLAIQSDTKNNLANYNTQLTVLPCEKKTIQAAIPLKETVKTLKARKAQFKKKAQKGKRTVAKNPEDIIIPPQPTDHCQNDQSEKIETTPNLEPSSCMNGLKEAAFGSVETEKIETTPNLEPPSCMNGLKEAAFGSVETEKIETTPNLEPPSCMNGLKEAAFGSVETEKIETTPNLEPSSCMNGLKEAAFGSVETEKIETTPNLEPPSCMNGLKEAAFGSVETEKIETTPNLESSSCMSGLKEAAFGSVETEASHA

[2] = target: T2, HYL1^G147E, recombinant (MBP-G147E and GST-G147E) (Arabidopsis thaliana) (UniProt O04492); experiment: as above
T2 sequence: T1 sequence with G147E

[3] = target: T3, HYL1^L165E, recombinant (MBP-L165E and GST-L165E) (Arabidopsis thaliana) (UniProt O04492); experiment: as above
T3 sequence: T1 sequence with L165E

[4] = target: T4, HYL1 K154E, BiFC fusion (Arabidopsis thaliana) (UniProt O04492); experiment: split reporter; BiFC in Arabidopsis protoplasts, data not shown
T4 sequence: T1 sequence with K154E

[5] = target: T5, HYL1 R151E, BiFC fusion (Arabidopsis thaliana) (UniProt O04492); experiment: as above
T5 sequence: T1 sequence with R151E

[6] = target: T6, HYL1 R162E, BiFC fusion (Arabidopsis thaliana) (UniProt O04492); experiment: as above
T6 sequence: T1 sequence with R162E

[7] = target: T7, HYL1, wild type, BiFC fusion (nYFP- and cYFP-tagged) (Arabidopsis thaliana) (UniProt O04492); experiment: split reporter; BiFC: cYFP-tagged and nYFP-tagged constructs cotransformed into Arabidopsis protoplasts, 22.5°C in darkness for 12 h, confocal microscopy
T7 sequence: T1 sequence

[8] = target: T8, HYL1^G147E, BiFC fusion (Arabidopsis thaliana) (UniProt O04492); experiment: as above
T8 sequence: T1 sequence with G147E

[9] = target: T9, HYL1^L165E, BiFC fusion (Arabidopsis thaliana) (UniProt O04492); experiment: as above
T9 sequence: T1 sequence with L165E

[10] = target: T10, HYPONASTIC LEAVES1 (HYL1), full-length, yeast two-hybrid fusion (Arabidopsis thaliana), O04492; experiment: two-hybrid; library screen: pGBKT7 bait in Y2H Gold mated with the pistil library; selection on media lacking -Leu-Trp-Ade+3AT; details: remark: other sources report otherwise
T10 chain: T1 sequence

[11] = target: T10, HYPONASTIC LEAVES1 (HYL1), full-length, …; experiment: two-hybrid; pGBKT7 (GAL4 DNA binding domain) and pGADT7 (activation domain) fusions cotransformed into yeast AH109; growth on SD/-Ade/-His/-Leu/-Trp; details: remark: other sources report otherwise
[12] = target: HYL1^I158E in hyl1-2;I158E transgenic plants (Arabidopsis thaliana) (UniProt O04492); experiment: western blot of plant extract under native condition; total protein extract of plants in buffer without addition of SDS and urea, detected with HYL1 antibody
[13] = target: T11, HYL1, endogenous in wild-type plants (Arabidopsis thaliana (endogenous in wild-type plants)), O04492; experiment: as above; details: remark: other sources report otherwise
T11 chain: T1 sequence

[14] = target: T12, HYL1, full-length, recombinant (MBP-HYL1 and GST-HYL1) (Arabidopsis thaliana), O04492; experiment: pull-down; MBP-tagged protein on amylose resin, incubated with GST-tagged protein overnight at 4°C in 25 mM Tris pH 7.4, 1 mM EDTA, 0.01% NP-40, 2 M NaCl; 10 washes; immunoblot with GST antibody; both purified; details: remark: other sources report otherwise
T12 chain: T1 sequence

[15] = target: T12, HYL1, full-length, recombinant …; experiment: pull-down; recombinant HYL1 or mutant from E. coli with DCL1 or SE tagged with 3×Flag purified from HEK293; western analysis; bait not stated; both purified; details: remark: other sources report otherwise

binding [1]: binds
binding [2]: binds
binding [3]: binds
Molecule: DCL1 tagged with 3×Flag, recombinant (from UniProt Q9SP32 1-1909) (enzyme)

binding [4]: binds
binding [5]: binds
binding [6]: binds
binding [7]: binds
binding [8]: binds
binding [9]: binds
Molecule: DCL1, BiFC fusion (from UniProt Q9SP32 1-1909) (enzyme)

binding [10]: binds
binding [11]: binds
B1: HYPONASTIC LEAVES1 (HYL1), full-length, yeast two-hybrid fusion, O04492 1-419 (protein)
chain: T1 sequence

binding [12]: binds
B2: HYL1^I158E in hyl1-2;I158E transgenic plants (protein, UniProt O04492 1-419)
chain: T1 sequence with I158E

binding [13]: binds
B3: HYL1, endogenous in wild-type plants, O04492 1-419 (protein)
chain: T1 sequence

binding [14]: binds
B4: HYL1, full-length, recombinant (MBP-HYL1 and GST-HYL1), O04492 1-419 (protein)
chain: T1 sequence

binding [15]: binds
B5: SE tagged with 3×Flag, recombinant, Q9ZVD0 1-720 (protein)
chain: MADVNLPPSDSVDNRLPEKSTSSSPPPPPPSSSLPQQEQEQDQQQLPLRRERDSRERRDERDIERPPPNRRERDRSPLPPPRRDYKRRPSLSPPPPYRDRRHSPPQRRSPPQKRYRRDDNGYDGRRGSPRGGYGPPDRRFGYDHGGGYDREMGGRPGYGDERPHGRFMGRYQDWEGGRGGYGDASNSGNPQRDGLMSYKQFIQELEDDILPSEAERRYQEYKSEYITTQKRAFFNTHKEEDWLKNKYHPTNLLSVIERRNDLAQKVAKDFLLDLQSGTLDLGPAVTALNKSGRTSEPNSEDEAAGVGKRKRHGMGGAKENELLSAAPKAPSFTSDPKRILTDVEQTQALVRKLDSEKKIEENVLQGSETEKSGREKLHSGSTGPVVIIRGLTSVKGLEGVELLDTLVTYLWRVHGLDYYGKVETNEAKGLRHVRAEGKVSDAKGDENESKFDSHWQERLKGQDPLEVMAAKEKIDAAATEALDPHVRKIRDEKYGWKYGCGAKGCTKLFHAAEFVYKHLKLKHTELVTELTTKVREELYFQNYMNDPNAPGGQPATQQSGPRDRPIRRKPSMENRLRDDRGGRRERDGRANGNDRNDRSEDQQRGDNDGGNPGEVGYDAFGGQGGVHVPPFLSDINPPPMLMPVPGAGPLGPFVPAPPEVAMQMFRDPSGPNPPFEGSGRGGPAPFLLSPAFRQDPRRLRSYQDLDAPEEEVTVIDYRSL
